Measured values from US20250177502A1, “THROMBIN AND FIBRINOGEN AS TARGETS FOR ATOPIC DERMATITIS DIAGNOSIS AND TREATMENT” (Children's Hospital Medical Center, priority 2022, published 2025).
“Also recorded” adds a separate entry of the source. For at least one compound, name, drawing or mass did not settle the structure.

Tests used:
[1] = test system: mouse model of AD; test: Mouse model of AD, 3 cutaneous Aspergillus fumigates (Asp) patches: TEWL and symptom score; type: in vivo; conditions: after 3 patches, dabigatran chow vs control mice
[2] = test system: fibrin(ogen); test: Skin fibrin(ogen) by immunohistochemistry and ELISA in the mouse model of AD; type: in vivo, mice; conditions: Asp patch group; for fibrin(ogen) staining of skin samples (immunohistochemistry): dabigatran chow vs controls

[H]/N=C(/N)c1ccc(NCc2nc3cc(C(=O)N(CCC(=O)O)c4ccccn4)ccc3n2C)cc1 [dabigatran]
transepidermal water loss (TEWL) ([1]; P-value=0.03): decreased transepidermal water loss (TEWL) | symptom severity scoring ([1]; P-value=0.07): trend towards decreased symptom severity; also recorded: decreased symptom severity scoring | fibrin(ogen) staining of skin samples (immunohistochemistry) [2]: significantly lower | fibrin(ogen) staining of skin samples (immunohistochemistry) ([2]; listed as Dabigatran): markedly decreased fibrin(ogen) staining | fibrin(ogen) in whole skin homogenates (ELISA) ([2]; dabigatran chow, P-value=0.0025): significantly lower fibrin(ogen)
